{"source": "PubChem BioAssay AID540276", "about": "(National Center for Advancing Translational Sciences (NCATS), 2011)", "note": "The whole screen tested about 300,000 compounds, of which about 5,400 (1.8%) were called active. The inconclusive results got no clear call from the source; some entries with a clear call stand among them for comparison. The call rests on the fitted dose curve; tested in HEK293 cells. Potencies of inconclusive entries are doubtful fits and often do not repeat. On the % scale 0 is the no-effect control and ±100 the full control effect; potency means the concentration at half of the fitted maximal effect."}
{"assay": "qHTS for inhibitors of binding or entry into cells for Marburg Virus", "conditions": "Marburg virus pseudotyped entry inhibition, cell reporter; activity change, negative = inhibition: at 37.8 µM (top of the series) unless noted"}
{"molecule": "N=C1/C(=C/c2ccc(OCc3ccccc3)cc2)C(=O)N=C2SC(CC(=O)N3CCOCC3)=NN12", "Potency": "inconclusive: 7.94 µM [activator, partial curve, poor fit]"}
{"molecule": "Cc1ccc(NC(=O)Nc2nnc(N(CC(C)C)CC(C)C)s2)cc1Cl", "Potency": "inconclusive: 2 µM [activator, single point]"}
{"molecule": "O=C(COc1ccc([N+](=O)[O-])cc1)Nc1cccnc1", "activity change, negative = inhibition": "inconclusive: 2.49% [activator] [at 46.1 µM]"}
{"molecule": "COc1ccc(OC)c(C2=Nn3c(nnc3-c3ccncc3)SC2)c1", "Potency": "active: 3.98 µM"}
{"molecule": "CCOC(=O)Cc1csc(NC(=O)c2ccoc2C)n1", "Potency": "inactive"}
{"molecule": "COc1ccc(Nc2nc(NCc3ccco3)nc(N/N=C/c3ccc(O)cc3)n2)cc1", "Potency": "inconclusive: 29.1 µM [inhibitor, single point]"}
{"molecule": "Cc1ccc(NC(=O)c2cnn3c(C(F)F)cc(-c4ccccc4)nc23)c(C)c1", "Potency": "inactive"}
{"molecule": "COc1ccc(C2=CC(=O)N(Nc3ccccc3)C2=O)cc1", "Potency": "inconclusive: 11.2 µM [inhibitor, partial curve, poor fit]"}
{"molecule": "Cc1ccccc1S(=O)(=O)Cc1ccc(C(=O)NCCCN(C)Cc2ccccc2)o1", "Potency": "inconclusive: 11.2 µM [inhibitor, single point]"}
{"molecule": "CCOc1ccc(-c2cc(NC(=O)Nc3cccc(C(C)=O)c3)c(C(=O)OC)s2)cc1", "Potency": "inconclusive: 7.94 µM [activator, single point]"}
{"molecule": "c1ccc2c(c1)c1c(c3ccccc32)CN2CCCC2C1", "note": "(stereo not given)", "Potency": "inconclusive: 22.4 µM [inhibitor, single point]"}
{"molecule": "CCOC(=O)CNC(c1ccccc1)c1cc(Br)ccc1NC(=O)CCN1CCOCC1", "note": "(stereo not given)", "Potency": "inconclusive: 0.731 µM [inhibitor, full curve]"}
{"molecule": "CCOC(=O)c1ccc(NC(=O)CCCc2nc(-c3ccccc3Cl)no2)cc1", "Potency": "inactive"}
{"molecule": "COC(=O)c1ccccc1COn1c(=O)c[n+]([O-])c2ccccc21", "Potency": "inconclusive: 0.631 µM [inhibitor, full curve, poor fit]"}
{"molecule": "COC(=O)c1[nH]c2ccc(C)cc2c1NC(=O)CN1CCCc2ccccc21", "Potency": "inconclusive: 23.1 µM [inhibitor, single point]"}
{"molecule": "COc1ccccc1CNC(=O)CCn1c(=O)c2ccccc2n(CC(=O)Nc2cccc(Cl)c2)c1=O", "Potency": "inconclusive: 15.8 µM [inhibitor, single point]"}
{"molecule": "Cc1nc2ccccc2n1-c1nc(-c2ccco2)cc(C(F)(F)F)n1", "Potency": "inconclusive: 25.9 µM [inhibitor, single point]"}
{"molecule": "O=C(O)CN(c1ccccc1)C1SC(=O)NC1=O", "note": "(stereo not given)", "Potency": "inactive"}
{"molecule": "COC(=O)N/N=C\\c1cc(Br)ccc1OCc1ccccc1", "Potency": "inactive"}
{"molecule": "O=C(NCCCn1ccnc1)Nc1ccc(Cl)cc1", "Potency": "inconclusive: 0.291 µM [inhibitor, single point]"}
{"molecule": "CCOC(=O)C1=C(C)N=C2SC=C(C)N2C1c1ccc(OC)cc1", "note": "(stereo not given)", "Potency": "active: 5.01 µM"}
{"molecule": "CC1(c2ccc3ccccc3c2)NC(=O)N(CC(=O)NCC(C)(C)N2CCOCC2)C1=O", "note": "(stereo not given)", "Potency": "inactive"}
{"molecule": "Cc1n[nH]c(=O)c2c(NC(=O)CSc3nnc(-c4ccncc4)n3C)oc(C)c12", "Potency": "inconclusive: 5.62 µM [inhibitor, single point]"}
{"molecule": "COc1cc2nncc(SC)c2cc1OC", "Potency": "inconclusive: 3.16 µM [inhibitor, partial curve, poor fit]"}
{"molecule": "O=C(/C=C/c1ccccc1)OCc1cncs1", "Potency": "inactive"}
{"molecule": "COCCn1c(C)cc(C(=O)CSc2cc(C)c3ccccc3n2)c1C", "Potency": "inconclusive: 35.5 µM [inhibitor, single point]"}
{"molecule": "COCCCNC(=S)NNC(=S)NCCCOC", "Potency": "inconclusive: 0.316 µM [activator, full curve, poor fit]"}
{"molecule": "COc1ccc(OC)c(/C=N/NC(=O)c2cc(-c3ccc(C)o3)nc3ccccc23)c1", "Potency": "inconclusive: 10 µM [inhibitor, partial curve]"}
{"molecule": "COc1ccc(NC(=O)CN2C(=O)NC3(CCCC3)C2=O)cc1Cl", "Potency": "inactive"}
{"molecule": "COc1cc(/C=N/NC(=O)c2cc(-c3ccccc3)nc3ccccc23)ccc1O", "Potency": "inconclusive: 22.4 µM [inhibitor, single point]"}
{"molecule": "CCNc1[nH]c(=O)n(C)c(=O)c1N=O", "Potency": "inconclusive: 3.55 µM [activator, full curve, poor fit]"}
{"molecule": "O=S(=O)(c1cccc2ccccc12)N1CCCCC1", "Potency": "inconclusive: 4.47 µM [inhibitor, full curve, poor fit]"}
{"molecule": "CCOC(=O)c1cnc(SC)nc1Oc1cccc(NC(=O)c2ccc(C)cc2)c1", "Potency": "inconclusive: 8.91 µM [activator, single point]"}
{"molecule": "CN(C)Cc1cc(C(C)(C)c2cc(CN(C)C)c(O)c(CN(C)C)c2)cc(CN(C)C)c1O", "Potency": "active: 11.6 µM"}
{"molecule": "CCOc1ccc2nc(NC(=O)c3cc(=O)c4ccc(C)cc4o3)sc2c1", "Potency": "inconclusive: 11.2 µM [activator, partial curve, poor fit]"}
{"molecule": "Cc1ccc(-c2noc(CCCC(=O)N3CCOCC3)n2)cc1", "Potency": "inactive"}
{"molecule": "CCOc1ccc(N2CC(c3nc4ccccc4n3Cc3cccc(Cl)c3)CC2=O)cc1", "note": "(stereo not given)", "Potency": "inactive"}
{"molecule": "CC(=O)Nc1ccc2c(c1)C(=O)N(c1cccc(C)c1)C2=O", "Potency": "inactive"}
{"molecule": "CCOc1cc2c(cc1OCC)-n1cccc1C(c1ccc(C)cc1C)NC2", "note": "(stereo not given)", "Potency": "inconclusive: 8.91 µM [inhibitor, partial curve, poor fit]"}
{"molecule": "O=C(Nc1c(F)cccc1F)c1cnc(N2CCN(c3ccccn3)CC2)c2ccccc12", "Potency": "inconclusive: 13 µM [inhibitor, partial curve, poor fit]"}
{"molecule": "Cn1c(SCC(=O)Nc2cc(C(C)(C)C)nn2-c2ccccc2)nc2ccccc21", "Potency": "inconclusive: 0.1 µM [inhibitor, full curve, poor fit]"}
{"molecule": "Cc1nn(CCCC(=O)NCc2ccc(F)cc2)c(=O)c2c1sc1ccccc12", "Potency": "inconclusive: 12.6 µM [activator, single point]"}
{"molecule": "Cc1ccc(N/C(N)=N/c2nc3c(c(=O)[nH]2)CCCC3)c(C)c1", "Potency": "inconclusive: 3.66 µM [inhibitor, full curve]"}
{"molecule": "C=CCN1C(=O)/C(=C2/Sc3ccc(OC)cc3N2C)SC1=Nc1cccc(O)c1", "Potency": "inconclusive: 11.2 µM [inhibitor, partial curve]"}
{"molecule": "Cc1ccc(S(=O)(=O)Cc2ccc(C(=O)NCCCN3CCCC3=O)o2)cc1", "Potency": "inactive"}
{"molecule": "CCN(CC)CCNc1ccc(C)c2sc3ccc(O)cc3c(=O)c12", "Potency": "active: 2.24 µM"}
{"molecule": "CCOCCCNC(=O)/C(C#N)=C/c1cc(OC)c(O)c([N+](=O)[O-])c1", "Potency": "inconclusive: 8.91 µM [inhibitor, partial curve, poor fit]"}
{"molecule": "O=C(CNC(=S)NC(=O)c1cccc([N+](=O)[O-])c1)c1ccccc1", "Potency": "inconclusive: 35.5 µM [inhibitor, single point]"}
{"molecule": "CCn1cc(/C=C/C(=O)Nc2ccn(Cc3c(F)c(F)cc(F)c3F)n2)cn1", "Potency": "inconclusive: 17.8 µM [inhibitor, single point]"}
{"molecule": "COc1ccc(/C=N/N=C2/NC(=O)C(CC(=O)O)S2)cc1OCc1ccc(Cl)cc1", "note": "(stereo not given)", "Potency": "inconclusive: 2 µM [activator, partial curve]"}
{"molecule": "CCOC(=O)c1c(SCCN2CCCC2)n(-c2ccccc2)c(=S)n(-c2ccccc2)c1=O", "Potency": "inconclusive: 7.94 µM [inhibitor, partial curve, poor fit]"}
{"molecule": "O=C(CN1C(=O)CCS(=O)(=O)c2ccccc21)NCc1ccccc1", "Potency": "inactive"}
{"molecule": "O=C(CCCOc1ccc(Cl)cc1Cl)Nc1ccccc1C(=O)O", "Potency": "active: 3.16 µM"}
{"molecule": "C=CCNC(=O)c1ccccc1NS(=O)(=O)c1ccc(OC)c(C(=O)N2CCOCC2)c1", "Potency": "inactive"}
{"molecule": "O=C(c1cc(-c2ccc(Cl)cc2Cl)on1)N1CCOCC1", "Potency": "inconclusive: 0.58 µM [activator, partial curve, poor fit]"}
{"molecule": "Cc1ccc(O)c(C(CC(=O)NCC2(c3ccccc3)CCCC2)c2ccccc2)c1", "note": "(stereo not given)", "Potency": "inconclusive: 11.2 µM [inhibitor, partial curve, poor fit]"}
{"molecule": "Cc1ccc2nc(C(Cl)(Cl)Cl)nc(N/N=C/c3ccncc3)c2c1", "Potency": "inactive"}
{"molecule": "O=C(O)[C@@H]1C[C@@H](C(=O)O)N1", "Potency": "inconclusive: 0.0794 µM [activator, full curve, poor fit]"}
{"molecule": "Clc1ccc(N/N=C/c2cccnc2)cc1", "Potency": "inconclusive: 0.316 µM [activator, partial curve, poor fit]"}
{"molecule": "COc1ccccc1C1CC(c2ccc(Cl)cc2)Nc2ncnn21", "note": "(stereo not given)", "Potency": "inactive"}
{"molecule": "CN1CCN(CC(=O)Nc2ccc(Cl)cc2Cl)CC1", "Potency": "inactive"}
{"molecule": "O=C(O)c1cccc(COc2ccccc2Cl)c1", "Potency": "active: 0.411 µM"}
{"molecule": "CCOC(=O)c1c(-c2ccccc2)oc2ccc(N(C(C)=O)S(=O)(=O)c3cc(C)ccc3C)cc12", "Potency": "inactive"}
{"molecule": "CCOC(=O)N1CCC(NCc2c(C(=O)N(C)Cc3ccccc3)nc3ccccn23)CC1", "Potency": "inactive"}
{"molecule": "CCN(CC)c1ccc(NC(=O)c2ccco2)c(C)c1", "Potency": "inactive"}
{"molecule": "Cc1nnc(SCC(=O)N/N=C/c2cn(-c3ccccc3)nc2-c2ccc(F)cc2)n1-c1ccccc1", "Potency": "inconclusive: 0.708 µM [activator, partial curve, poor fit]"}
{"molecule": "O=C(NCC1CCCCC1)c1ccc(F)cc1Cl", "Potency": "inactive"}
{"molecule": "Cc1cn2c(=O)cc(COc3cccc(NC(=O)c4ccccc4C)c3)nc2s1", "Potency": "inactive"}
{"molecule": "Cc1cc2cc(C)c(SCC(=O)NCc3ccco3)nc2cc1C", "Potency": "inconclusive: 35.5 µM [inhibitor, single point]"}
{"molecule": "Cc1ccc(-n2c(SCC(=O)N/N=C/c3c(C)nn(-c4ccccc4)c3C)nc3ccccc3c2=O)cc1", "Potency": "inconclusive: 2.51 µM [inhibitor, full curve, poor fit]"}
